Library screening results

A: 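Whole-cell assay for inhibitors of Mycobacterium tuberculosis growth, labelled Cornell in the record; the read-out is not stated. The concentration is filed as 10 mM, unlikely as a test dose, so the dose is not known. Higher means stronger inhibition (inferred from two other growth screens of the library). Size under these conditions: about 53,000 compounds, about 900 of them at 50% or above in at least one test.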
B: 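Assay on Mycobacterium tuberculosis, filed only as a heat shock assay from Cornell; the read-out is not stated. The concentration is filed as 10 mM, unlikely as a test dose, so the dose is not known. Higher reads as stronger inhibition (inferred: compounds with an IC50 in retests scored well above the rest). Size under these conditions: about 69,000 compounds, about 930 of them at 50% or above in at least one test.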

Values are the deposited “Percent Effect”, in %.
How 0% and 100% were set is not recorded. Most values in the screen are low, and negative values occur.
Compounds were drawn at random from those tested, without regard to their results.
A dash means the value is not listed here; it may have been measured.

| # | SMILES | A | B |
|---|---|---|---|
| 1 | `CC(C)Cn1cncc1-c1nc2c([nH]1)CC(C)(C)CNC2=O` | -20.35% | -21.61% |
| 2 | `COCCc1noc(CN(C)C(=O)C2COc3ccccc3C2)n1` (centres unmarked) | 14% | -29.33% |
| 3 | `CCNC(=O)CCC(=O)NC1(c2cccc(C(F)(F)F)c2)CCC1` | -13.29% | -22.1% |
| 4 | `O=C(C1CN(CC2CC2)CC12CCOCC2)N1CCCC1` (centres unmarked) | -44.21% | -13.95% |
| 5 | `c1cncc(-c2noc(CNCC3CCCN3c3cccnn3)n2)c1` (centres unmarked) | - | 4.177% |
| 6 | `COCC(=O)N1CCC(c2nc3ccc(N4CCOCC4)cn3n2)CC1` | -6.298% | -20.44% |
| 7 | `CN(CCn1cccn1)S(=O)(=O)c1cccc(Cl)c1C#N` | 9.738% | -5.414% |
| 8 | `[H][C@]12CC[C@]([H])(CN(Cc3cccnc3)C1)N(C(=O)CCn1cncn1)C2` | - | 15.64% |
| 9 | `O=C(O)C(F)(F)F.[H][C@@]12CCN(Cc3ccc4c(c3)OCO4)C[C@]1(C(=O)NC(C)C)CCO2` | -5.39% | 10.51% |
| 10 | `Cc1cc(C)n(CC2CCCN2C(=O)c2c(C)noc2C)n1` (centres unmarked) | - | -16.4% |
| 11 | `CCCn1c(N2CCCC(C)C2)nc2c(C)nn(C)c2c1=O` (centres unmarked) | - | 9.944% |
| 12 | `Cc1c2nnn(CC(=O)N(C)C)c(=O)c2nn1C` | - | -8.95% |
| 13 | `Cl.Cn1ncc2c1CCCC2NCc1ccc(Br)s1` (centres unmarked) | -24.84% | 6.049% |
| 14 | `COCCn1c2c(ccc1=O)CC(NS(C)(=O)=O)CC2` (centres unmarked) | - | -9.187% |
| 15 | `CSCC[C@H](NC(C)=O)c1nc(CC(C)C)n[nH]1` | -38.01% | -8.503% |
| 16 | `Cc1cc2nc(C(C)C)cc(NCCNc3ncccc3C)n2n1` | 6.29% | -16.57% |
| 17 | `Cc1nn(C)cc1-c1ccnc(N(C)Cc2noc(C(C)C)n2)n1` | 24.96% | -20.59% |
| 18 | `CCOc1ccc(Cl)c(C(=O)NCCC(=O)Nc2ccccn2)n1` | - | -9.243% |
| 19 | `O=C(O)C(F)(F)F.O=C(O)C(F)(F)F.[H][C@]12CCN(Cc3ccc(C)cc3)[C@@]1([H])C[C@H](C(=O)N1CCN(C)CC1)O2` | -7.717% | 25.47% |
| 20 | `CSCC[C@H](N)c1nnc(SCc2cc(C)ccc2C)o1.Cl` | 29.76% | -7.664% |
| 21 | `CC(C)(C)CN[C@@H]1CO[C@H](CNC(=O)C2CCCC2)[C@H]1O` | -16.04% | -5.725% |
| 22 | `CC(=O)N1CCN(C(C)C)CC(COc2ccccc2)C1` (centres unmarked) | 12.57% | -6.668% |
| 23 | `Cc1ccc(-n2nc(C)c3c2NC(=O)CC3c2cnc(N)s2)cc1` (centres unmarked) | - | -2.649% |
| 24 | `CCc1cnc(CN(C(C)=O)C2CCN(CCc3ccncc3)C2)o1` (centres unmarked) | 5.907% | -3.433% |
| 25 | `COC(=O)C1CCCN1CC(=O)NCc1ccc(OCC(N)=O)cc1` (centres unmarked) | -18.9% | 9.262% |
| 26 | `CCc1csc(C2CCCN(C(=O)c3ccc(=O)n(CC)n3)C2)n1` (centres unmarked) | -10.64% | -5.609% |
| 27 | `Cc1ccc(-c2nc(CN3CCn4c(nnc4C4CC4)C3)co2)cc1` | - | -12.69% |
| 28 | `Cc1cnc(C(=O)NCc2ccc3c(c2)CCCN3C)cn1` | -18.7% | 1.607% |
| 29 | `NC(=O)Cc1csc(NC(=O)C2CSCCC(=O)N2)n1` (centres unmarked) | -7.102% | 9.084% |
| 30 | `COc1ccc(CCCC(=O)N2CCCC(n3cccn3)C2)cc1` (centres unmarked) | 10.75% | 4.246% |
| 31 | `Cc1ccc(C)c(OC2CCN(C(=O)c3ccc(O)nc3)CC2)c1` | - | 2.956% |
| 32 | `Cc1nc(CN(C)S(=O)(=O)c2ccc(F)cc2Br)no1` | - | 18.59% |
| 33 | `Cc1cnn(CC(C)NCc2ccncc2)c1` (centres unmarked) | -5.754% | -1.077% |
| 34 | `CNC(=O)N(Cc1c(F)cccc1F)C1CCCC1` | 12.58% | 9.305% |
| 35 | `COC1CCN(C(=O)Nc2ccccc2)CC(=O)N(C)c2ccccc21` (centres unmarked) | 8.097% | 9.823% |
| 36 | `Cc1cnn(CCNCC(O)c2ccc(F)c(F)c2)c1` (centres unmarked) | 27.19% | 15.84% |
| 37 | `[H][C@@]12CCCN1C[C@@H](Cc1ccccc1)N(Cc1cnn(CCC)c1C)C2` | -35.45% | -30.21% |
| 38 | `[H][C@@]12CCN(C(=O)N(C)C)C[C@@]1([H])O[C@@H](c1nc(C)no1)C2` | 1.354% | 1.694% |
| 39 | `O=C([C@H]1CCCO1)N1CCc2ncc(CN3CCOCC3)n2CC1` | 19.63% | 0.197% |
| 40 | `CC(C)(C(=O)NCC1CCN(Cc2cccnc2)C1)c1ccccc1` (centres unmarked) | -18.26% | -18.16% |
| 41 | `c1cnn(CC2CCCN2Cc2noc(C3CC3)n2)c1` (centres unmarked) | 3.072% | 1.203% |
| 42 | `Cc1ccc(C2COCCN2C(=O)c2ccc(F)c(F)c2)o1` (centres unmarked) | 5.351% | -17.86% |
| 43 | `CC(=O)Nc1ncc(-c2ccc(C)cc2)[nH]1` | 0.561% | 10.26% |

The last 4 entries again:

SMILES	A	B
CC(C)(C(=O)NCC1CCN(Cc2cccnc2)C1)c1ccccc1 (centres unmarked)	-18.26%	-18.16%
c1cnn(CC2CCCN2Cc2noc(C3CC3)n2)c1 (centres unmarked)	3.072%	1.203%
Cc1ccc(C2COCCN2C(=O)c2ccc(F)c(F)c2)o1 (centres unmarked)	5.351%	-17.86%
CC(=O)Nc1ncc(-c2ccc(C)cc2)[nH]1	0.561%	10.26%

Measurements from “University of Dundee, Small-Polar-MMV Screening Library” (2021), ChEMBL document CHEMBL3988442.